Laboratory results: the supplement of paper PMC4604168 (melanoma cell lines)
This is one part of the list. Single values are uncertain, as repeats are few or missing.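 Cells were imaged in 1,536-well plates, and nuclei stained with an antibody against cleaved PARP were counted against all DNA-stained nuclei to give the apoptosis fraction. Screening doses were chosen to leave most cells alive, and resting and induced cleaved-PARP levels differ strongly between cell lines.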

Key:
Assay in all cases: cleaved PARP positive nuclei fraction relative to DMSO control; melanoma cells; higher = more apoptosis
Details in all cases: library dose: low library concentration; 72 h
501Mel = test system: 501Mel
A101D = test system: A101D
A2058 = test system: A2058
A375 = test system: A375
C32 = test system: C32
CBRC008 = test system: CBRC008 (line from a melanoma biopsy)
CBRC014 = test system: CBRC014 (line from a melanoma biopsy)
CBRC016 = test system: CBRC016 (line from a melanoma biopsy)
CBRC017 = test system: CBRC017 (line from a melanoma biopsy)
CBRC034 = test system: CBRC034 (line from a melanoma biopsy)
COLO792 = test system: COLO792
COLO800 = test system: COLO800
COLO829 = test system: COLO829
G361 = test system: G361
IPC-298 = test system: IPC-298
IST-MEL1 = test system: IST-MEL1
LB2518-MEL = test system: LB2518-MEL
LOXIMVI = test system: LOXIMVI
MEL-HO = test system: MEL-HO

Row | Compound | cleaved PARP positive nuclei fraction (501Mel) | cleaved PARP positive nuclei fraction (A101D) | cleaved PARP positive nuclei fraction (A2058) | cleaved PARP positive nuclei fraction (A375) | cleaved PARP positive nuclei fraction (C32) | cleaved PARP positive nuclei fraction (CBRC008) | cleaved PARP positive nuclei fraction (CBRC014) | cleaved PARP positive nuclei fraction (CBRC016) | cleaved PARP positive nuclei fraction (CBRC017) | cleaved PARP positive nuclei fraction (CBRC034) | cleaved PARP positive nuclei fraction (COLO792) | cleaved PARP positive nuclei fraction (COLO800) | cleaved PARP positive nuclei fraction (COLO829) | cleaved PARP positive nuclei fraction (G361) | cleaved PARP positive nuclei fraction (IPC-298) | cleaved PARP positive nuclei fraction (IST-MEL1) | cleaved PARP positive nuclei fraction (LB2518-MEL) | cleaved PARP positive nuclei fraction (LOXIMVI) | cleaved PARP positive nuclei fraction (MEL-HO)
1 | CNC(=O)c1cc(Oc2ccc(NC(=O)Nc3ccc(Cl)c(C(F)(F)F)c3)cc2)ccn1 [sorafenib] + COc1ccc(Cl)c(Nc2nc3ccccc3nc2NS(=O)(=O)c2cccc(NC(=O)C(C)(C)N)c2)c1 [XL147] (first compound 0.4 µM, partner dose 0.8 µM) | 41% | 47.1% | 62.9% | 111% | 41.6% | 655% | 128% | 240% | 118% | 222% | 50.8% | 83.4% | 67.8% | 146% | 30% | 53.7% | 22.9% | 24.6% | 64.3%
2 | C[C@@H](Oc1cc(-c2cnn(C3CCNCC3)c2)cnc1N)c1c(Cl)ccc(F)c1Cl [Crizotinib] + C[C@]1(c2nc3c(C(N)=O)cccc3[nH]2)CCCN1 [Veliparib] (first compound 0.2 µM, partner dose 1.4 µM) | 139% | 57.7% | 261% | 171% | 78.7% | 96.8% | 97.3% | 21% | 88.7% | 63.7% | 116% | 292% | 169% | 97.9% | 333% | 84.8% | 78.6% | 149% | 134%
3 | CO[C@H]1C[C@@H]2CC[C@@H](C)[C@@](O)(O2)C(=O)C(=O)N2CCCC[C@H]2C(=O)O[C@H]([C@H](C)C[C@@H]2CC[C@@H](OCCO)[C@H](OC)C2)CC(=O)[C@H](C)/C=C(\C)[C@@H](O)[C@@H](OC)C(=O)[C@H](C)C[C@H](C)/C=C/C=C/C=C/1C [everolimus] + C=CCNC1=C2C[C@@H](C)C[C@H](OC)[C@H](O)[C@@H](C)/C=C(\C)[C@H](OC(N)=O)[C@@H](OC)/C=C\C=C(/C)C(=O)NC(=CC1=O)C2=O [Tanespimycin] (first compound 0.02 µM, partner dose 0.002 µM) | 461% | 127% | 88.5% | 1200% | 102% | 170% | 87.3% | 153% | 73.6% | 154% | 363% | 155% | 113% | 159% | 223% | 42.1% | 148% | 66.5% | 102%
4 | Cn1c(=O)n(-c2ccc(C(C)(C)C#N)cc2)c2c3cc(-c4cnc5ccccc5c4)ccc3ncc21 + Nc1cccc2c1CN(C1CCC(=O)NC1=O)C2=O [lenalidomide] (first compound 0.004 µM, partner dose 1 µM) | 138% | 53.1% | 107% | 270% | 75.2% | 203% | 88.6% | 97.3% | 95.4% | 103% | 80.2% | 79.4% | 82.8% | 114% | 183% | 146% | 109% | 159% | 189%
5 | O=C(O)[C@@H]1[O][Sb](=[O])([O][Sb]2(=[O])[O][C@H]([C@H](O)CO)[C@H](O)[C@H](C(=O)O)[O]2)[O][C@H]([C@H](O)CO)[C@@H]1O (some centres undefined) [stibogluconate] + C[C@]1(c2nc3c(C(N)=O)cccc3[nH]2)CCCN1 [Veliparib] (first compound 2 µM, partner dose 1.4 µM) | 88.6% | 65% | 125% | 148% | 70% | 85.1% | 109% | 303% | 72.7% | 58.1% | 160% | 78% | 198% | 97.1% | 43.5% | 122% | 106% | 207% | 54.8%
6 | Nc1nc(F)nc2c1ncn2[C@@H]1O[C@H](CO)[C@@H](O)[C@@H]1O [fludarabine] + OCc1c[nH]c2ccccc12 [Indole-3-carbinol] (first compound 0.2 µM, partner dose 0.8 µM) | 5050% | 158% | 87.1% | 5310% | 222% | 163% | 101% | 89.3% | 138% | 101% | 53.3% | 117% | 61.2% | 230% | 48.6% | 64.7% | 60.9% | 129% | 90.3%
7 | O=C(O)[C@@H]1[O][Sb](=[O])([O][Sb]2(=[O])[O][C@H]([C@H](O)CO)[C@H](O)[C@H](C(=O)O)[O]2)[O][C@H]([C@H](O)CO)[C@@H]1O (some centres undefined) [stibogluconate] + CO[C@H]1C[C@@H]2CC[C@@H](C)[C@@](O)(O2)C(=O)C(=O)N2CCCC[C@H]2C(=O)O[C@H]([C@H](C)C[C@@H]2CC[C@@H](OCCO)[C@H](OC)C2)CC(=O)[C@H](C)/C=C(\C)[C@@H](O)[C@@H](OC)C(=O)[C@H](C)C[C@H](C)/C=C/C=C/C=C/1C [everolimus] (first compound 2 µM, partner dose 0.02 µM) | 501% | 50.8% | 51.1% | 1340% | 109% | 122% | 73% | 144% | 291% | 52.6% | 122% | 205% | 125% | 78.4% | 159% | 148% | 140% | 182% | 36.4%
8 | CCCS(=O)(=O)Nc1ccc(F)c(C(=O)c2c[nH]c3ncc(Cl)cc23)c1F + COc1ccc(Cl)c(Nc2nc3ccccc3nc2NS(=O)(=O)c2cccc(NC(=O)C(C)(C)N)c2)c1 [XL147] (first compound 0.08 µM, partner dose 0.8 µM) | 36.1% | 403% | 172% | 351% | 84.6% | 108% | 129% | 149% | 137% | 46.1% | 116% | 72.3% | 109% | 151% | 158% | 103% | 57.2% | 71.8% | 143%
9 | CC(C)C[C@H](NC(=O)[C@H](Cc1ccccc1)NC(=O)c1cnccn1)B(O)O [Bortezomib] + CN1CCN(c2ccc3nc(-c4c(N)c5c(F)cccc5[nH]c4=O)[nH]c3c2)CC1 [Dovitinib] (first compound 0.001 µM, partner dose 0.1 µM) | 1180% | 1400% | 169% | 139% | 85.7% | 2860% | 193% | 1460% | 488% | 213% | 110% | 106% | 344% | 8870% | 106% | 176% | 708% | 325% | 74.7%
10 | CN1CCN(c2ccc3nc(-c4c(N)c5c(F)cccc5[nH]c4=O)[nH]c3c2)CC1 [Dovitinib] + Cn1nnc2c(C(N)=O)ncn2c1=O [temozolomide] (first compound 0.1 µM, partner dose 2 µM) | 124% | 52.3% | 93.1% | 113% | 92% | 98.6% | 105% | 113% | 81.2% | 61.8% | 30.7% | 89.1% | 89.9% | 71.2% | 88.6% | 24.5% | 164% | 242% | 156%
11 | O=C(O)[C@@H]1[O][Sb](=[O])([O][Sb]2(=[O])[O][C@H]([C@H](O)CO)[C@H](O)[C@H](C(=O)O)[O]2)[O][C@H]([C@H](O)CO)[C@@H]1O (some centres undefined) [stibogluconate] + C=C(c1ccc(C(=O)O)cc1)c1cc2c(cc1C)C(C)(C)CCC2(C)C [Bexarotene] (first compound 2 µM, partner dose 2 µM) | 123% | 93.8% | 106% | 132% | 81.6% | 96.2% | 106% | 137% | 126% | 60.8% | 105% | 67.7% | 44.3% | 183% | 119% | 69.2% | 99.1% | 96.6% | 112%
12 | Cn1c(=O)n(-c2ccc(C(C)(C)C#N)cc2)c2c3cc(-c4cnc5ccccc5c4)ccc3ncc21 + Clc1ccc(Nc2nnc(Cc3ccncc3)c3ccccc23)cc1 [vatalanib] (first compound 0.004 µM, partner dose 2 µM) | 304% | 275% | 138% | 558% | 77.9% | 61.2% | 118% | 186% | 131% | 64.3% | 111% | 148% | 87.9% | 139% | 47.7% | 66.1% | 224% | 154% | 35.2%
13 | Cc1cc(Nc2cc(N3CCN(C)CC3)nc(/C=C/c3ccccc3)n2)n[nH]1 + CN1CCN(c2ccc3nc(-c4c(N)c5c(F)cccc5[nH]c4=O)[nH]c3c2)CC1 [Dovitinib] (first compound 0.04 µM, partner dose 0.1 µM) | 128% | 90.3% | 112% | 97.9% | 76% | 58.7% | 109% | 31.8% | 225% | 191% | 98.5% | 61.4% | 110% | 56.1% | 51.8% | 128% | 264% | 54.4% | 98.1%
14 | Nc1ncn([C@H]2C[C@H](O)[C@@H](CO)O2)c(=O)n1 [decitabine] + Cn1c(Nc2ccc(C(F)(F)F)cc2)nc2cc(Oc3ccnc(-c4ncc(C(F)(F)F)[nH]4)c3)ccc21 [CHIR265] (first compound 0.1 µM, partner dose 0.08 µM) | 82.6% | 150% | 296% | 559% | 99% | 452% | 109% | 410% | 167% | 91.1% | 480% | 117% | 90.8% | 255% | 514% | 37.7% | 565% | 39.9% | 198%
15 | C=C(c1ccc(C(=O)O)cc1)c1cc2c(cc1C)C(C)(C)CCC2(C)C [Bexarotene] + Clc1ccc(Nc2nnc(Cc3ccncc3)c3ccccc23)cc1 [vatalanib] (first compound 2 µM, partner dose 2 µM) | 61.9% | 42% | 31.9% | 94.4% | 138% | 393% | 130% | 249% | 455% | 72.1% | 111% | 128% | 54% | 126% | 45.7% | 136% | 98.8% | 143% | 136%
16 | C[C@@H](Oc1cc(-c2cnn(C3CCNCC3)c2)cnc1N)c1c(Cl)ccc(F)c1Cl [Crizotinib] + Cn1c(Nc2ccc(C(F)(F)F)cc2)nc2cc(Oc3ccnc(-c4ncc(C(F)(F)F)[nH]4)c3)ccc21 [CHIR265] (first compound 0.2 µM, partner dose 0.08 µM) | 91.1% | 93.8% | 137% | 88.7% | 91.5% | 150% | 99.1% | 76.8% | 115% | 159% | 288% | 131% | 102% | 22.3% | 107% | 65.7% | 143% | 81.4% | 95.7%

Full records as entered above. Order of values: cleaved PARP positive nuclei fraction (501Mel) | cleaved PARP positive nuclei fraction (A101D) | cleaved PARP positive nuclei fraction (A2058) | cleaved PARP positive nuclei fraction (A375) | cleaved PARP positive nuclei fraction (C32) | cleaved PARP positive nuclei fraction (CBRC008) | cleaved PARP positive nuclei fraction (CBRC014) | cleaved PARP positive nuclei fraction (CBRC016) | cleaved PARP positive nuclei fraction (CBRC017) | cleaved PARP positive nuclei fraction (CBRC034) | cleaved PARP positive nuclei fraction (COLO792) | cleaved PARP positive nuclei fraction (COLO800) | cleaved PARP positive nuclei fraction (COLO829) | cleaved PARP positive nuclei fraction (G361) | cleaved PARP positive nuclei fraction (IPC-298) | cleaved PARP positive nuclei fraction (IST-MEL1) | cleaved PARP positive nuclei fraction (LB2518-MEL) | cleaved PARP positive nuclei fraction (LOXIMVI) | cleaved PARP positive nuclei fraction (MEL-HO)
O=C(O)[C@@H]1[O][Sb](=[O])([O][Sb]2(=[O])[O][C@H]([C@H](O)CO)[C@H](O)[C@H](C(=O)O)[O]2)[O][C@H]([C@H](O)CO)[C@@H]1O (some centres undefined) [stibogluconate] + CO[C@H]1C[C@@H]2CC[C@@H](C)[C@@](O)(O2)C(=O)C(=O)N2CCCC[C@H]2C(=O)O[C@H]([C@H](C)C[C@@H]2CC[C@@H](OCCO)[C@H](OC)C2)CC(=O)[C@H](C)/C=C(\C)[C@@H](O)[C@@H](OC)C(=O)[C@H](C)C[C@H](C)/C=C/C=C/C=C/1C [everolimus] (first compound 2 µM, partner dose 0.02 µM) in the list: 501% | 50.8% | 51.1% | 1340% | 109% | 122% | 73% | 144% | 291% | 52.6% | 122% | 205% | 125% | 78.4% | 159% | 148% | 140% | 182% | 36.4%
Nc1nc(F)nc2c1ncn2[C@@H]1O[C@H](CO)[C@@H](O)[C@@H]1O [fludarabine] + OCc1c[nH]c2ccccc12 [Indole-3-carbinol] (first compound 0.2 µM, partner dose 0.8 µM) in the list: 5050% | 158% | 87.1% | 5310% | 222% | 163% | 101% | 89.3% | 138% | 101% | 53.3% | 117% | 61.2% | 230% | 48.6% | 64.7% | 60.9% | 129% | 90.3%
